# Test results taken from the supplement of paper PMC10735217.
# Counter-ions that a name gives are not always drawn. Some of the results follow. Repeats in this data set agree poorly, so a single value says little.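 Human kidney-derived cells stably carry a construct in which eight TEAD-binding elements drive luciferase, measured by luminescence in a drug-repurposing library screen. A hit is any compound whose signal exceeds the plate mean by more than five robust Z scores.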
# Test system: HEK293A TEAD-LUC reporter
# Assay: TEAD-luciferase reporter activity (YAP activation), robust Z score vs plate; higher = stronger YAP/TEAD activation
# Conditions: 24 h
SMILES,TEAD-luciferase reporter activity (compound concentration: 200 nM),TEAD-luciferase reporter activity (compound concentration: 2 uM),TEAD-luciferase reporter activity (compound concentration: 10 uM)
CC(C)C1=C2[C@H]3CC[C@@H]4[C@@]5(C)CC[C@H](OC(=O)CC(C)(C)C(=O)O)C(C)(C)[C@@H]5CC[C@@]4(C)C3(C)CC[C@@]2([C@@H](O)CN(CCN(C)C)Cc2ccc(Cl)cc2)CC1=O (stereo partly drawn),inactive: 0.369,inactive: 0.0272,inactive: 0.0944
CSc1ccc([C@H]2CN3CCC[C@H]3c3ccccc32)cc1,inactive: -1.08,inactive: -1.46,inactive: 0.766
COc1ccc(C)cc1NS(=O)(=O)c1cc(OC2CCNCC2)c2occc2c1,inactive: -0.5,inactive: -0.115,inactive: -0.851
C[C@]12CC[C@H]3[C@@H](CCC4=CC(=O)CC[C@@]43C)[C@@H]1CC[C@@H]2C(=O)CO,inactive: 4.18,inactive: -0.117,inactive: 0.0988
COc1ccc(C(=O)N2CCCC2C(=O)N2CCC(c3ccccc3)CC2)cc1 (stereo not drawn),inactive: -0.65,,inactive: -1.69
"CC1CCC2C(C)(C)C3CC12CCC3(C)O (single isomer, unassigned; (+)) [(+)-Cedrol]",inactive: 1.72,inactive: -1.05,inactive: -0.533
CC1=CC[C@H](C(C)(C)O)C[C@H]1O [Cyclidrol],inactive: 0.277,inactive: 1.6,inactive: 0.829
Oc1ncc(F)cn1 [5-fluoro-2-pyrimidone],inactive: -0.833,,inactive: -0.925
Oc1ncc(F)cn1,,inactive: 0.71,
CCOC(=O)c1cc(=O)c2c(OCC(COc3cccc4oc(C(=O)OCC)cc(=O)c34)OC(=O)[C@@H](N)CCCCN)cccc2o1 [Cromoglycate lisetil hydrochloride],inactive: -0.237,inactive: -0.454,inactive: 1.04
COCCN1CCC(N(Cc2ccc(-c3ccc(C(F)(F)F)cc3)cc2)C(=O)c2cccs2)CC1,inactive: -0.455,inactive: -1.82,inactive: -0.176
C[n+]1ccn(C[C@@]2(C)[C@H](C(=O)[O-])N3C(=O)C[C@H]3S2(=O)=O)n1,inactive: 1.7,inactive: 0.276,inactive: -1.58
Cc1nc(Nc2n[nH]c3c2CN(C(=O)N[C@H](CN(C)C)c2ccccc2)C3(C)C)c2sccc2n1,inactive: -2.35,inactive: 3.68,inactive: -1.36
CC(C)(Sc1cc(C(C)(C)C)c(O)c(C(C)(C)C)c1)Sc1cc(C(C)(C)C)c(OC(=O)CCC(=O)O)c(C(C)(C)C)c1 [Succinobucol],inactive: -0.689,inactive: -0.0124,inactive: 1.63
Cc1cc(C(C)(C)C)c(O)c(C(C)(C)C)c1 [butylated hydroxytoluene],inactive: 0.993,inactive: -0.659,inactive: -0.11
COc1ncc(-c2ccc3nccc(-c4ccnnc4)c3c2)cc1NS(=O)(=O)c1ccc(F)cc1F [omipalisib],,inactive: -2.2,
COc1ncc(-c2ccc3nccc(-c4ccnnc4)c3c2)cc1NS(=O)(=O)c1ccc(F)cc1F,inactive: -1.56,,inactive: -2.63
COc1cc2nc(N3CCN(C(=O)OC(C)(C)C)CC3)nc(N)c2cc1OC,inactive: -1.23,inactive: -0.488,inactive: 1.63
Cc1cc(OCP(=O)(O)O)cc(C)c1Cc1ccc(O)c(C(C)C)c1,inactive: -1.65,inactive: -1.08,inactive: -0.821

# An excerpt from above, showing only TEAD-luciferase reporter activity (compound concentration: 10 uM) and TEAD-luciferase reporter activity (compound concentration: 2 uM).
SMILES | TEAD-luciferase reporter activity (compound concentration: 10 uM) | TEAD-luciferase reporter activity (compound concentration: 2 uM)
C[C@]12CC[C@H]3[C@@H](CCC4=CC(=O)CC[C@@]43C)[C@@H]1CC[C@@H]2C(=O)CO | inactive: 0.0988 | inactive: -0.117
COc1ccc(C(=O)N2CCCC2C(=O)N2CCC(c3ccccc3)CC2)cc1 (stereo not drawn) | inactive: -1.69 | 
CC1CCC2C(C)(C)C3CC12CCC3(C)O (single isomer, unassigned; (+)) [(+)-Cedrol] | inactive: -0.533 | inactive: -1.05
CC1=CC[C@H](C(C)(C)O)C[C@H]1O [Cyclidrol] | inactive: 0.829 | inactive: 1.6
Oc1ncc(F)cn1 [5-fluoro-2-pyrimidone] | inactive: -0.925 | 

# Next part:

SMILES,TEAD-luciferase reporter activity (compound concentration: 200 nM),TEAD-luciferase reporter activity (compound concentration: 2 uM),TEAD-luciferase reporter activity (compound concentration: 10 uM)
NS(=O)(=O)c1ccc(N2N=C(C(F)(F)F)CC2c2c[nH]c3c(Cl)cccc23)cc1 (stereo not drawn),inactive: -0.637,inactive: -0.999,inactive: -0.89
[2H]C([2H])([2H])n1c([N+](=O)[O-])cnc1C(C)C,inactive: -0.748,inactive: -0.611,inactive: -1.47
COc1ccc2c(c1)-c1nn(CCCN(C)C)c3ccc([N+](=O)[O-])c(c13)N2 [Pyrazoloacridine],inactive: 2.63,inactive: 0.169,inactive: 0.314
CC(CN1CCN(c2cccc3c2CCCN3)CC1)NC(=O)c1ccc(F)cc1 (stereo not drawn),inactive: 0.552,inactive: 2.03,inactive: 1.3
COc1ccc(-c2csc(CN)n2)cc1OC,inactive: -0.966,inactive: -1.33,inactive: -1.09
CC(C)(C)NCC(O)c1ccc(O)c(CO)c1 (stereo not drawn),inactive: 0.123,,inactive: -0.0261
CC(C)(C)NCC(O)c1ccc(O)c(CO)c1 (stereo not drawn) [R-salbutamol],,inactive: -0.804,
CC(C)(C)NCC(O)c1ccc(O)c(CO)c1 (stereo not drawn) [salbutamol],,inactive: -0.93,
Cc1cc(NC(=O)NC(=O)c2ccccc2N(C)C)ccc1Oc1ncc(Br)cn1,inactive: -1.11,inactive: -0.868,inactive: 1.57
CCOC(=O)[C@H](Cc1ccc(OC)cc1)NC(=O)C1(NC(=O)[C@@H](SC(C)=O)C(C)C)CCCC1,inactive: 3.18,inactive: -0.879,inactive: -1.5
O=C(O)CN1C(=O)C(N[C@@H](CCc2ccccc2)C(=O)O)CCc2ccccc21 (stereo partly drawn) [benazeprilat],inactive: 1,inactive: -1.7,inactive: -1.02
O=C(NCCc1ccc(O)c(O)c1)C12CC3CC(CC(C3)C1)C2 [dopamantine],inactive: -0.378,inactive: 0.0979,inactive: -1.49
CCC1c2ncn(CC)c2CCN1C(=S)NC(C)C (stereo not drawn),inactive: -0.337,inactive: 0.243,inactive: -0.0104
CC(C)c1cccc(C(C)C)c1NC(=O)C1c2ccccc2COc2ccc(Br)cc21 (stereo not drawn),inactive: -0.0645,inactive: -1.76,inactive: -1.19
CN(C)CCOC(C)(c1ccccc1)c1ccccn1 (stereo not drawn),inactive: -0.913,,inactive: -0.621
CN(C)CCOC(C)(c1ccccc1)c1ccccn1 (stereo not drawn) [doxylamine],,inactive: -0.251,
"Cn1cnc([N+](=O)[O-])c1Sc1ncnc2[nH]cnc12 [azathioprine, CTD]",,inactive: 0.701,
Cn1cnc([N+](=O)[O-])c1Sc1ncnc2[nH]cnc12 [Azathioprin],inactive: 1.85,,inactive: -0.162
CC(C)(C)[C@]1(O)CCN2C[C@H]3c4ccccc4CCc4cccc(c43)[C@@H]2C1 [butaclamol],inactive: -1.4,inactive: -0.875,active: 7.21

SMILES,TEAD-luciferase reporter activity (compound concentration: 200 nM),TEAD-luciferase reporter activity (compound concentration: 2 uM),TEAD-luciferase reporter activity (compound concentration: 10 uM)
CCCc1c(OCCCCCOc2cc3c(cc2C(C)=O)CCC(C(=O)O)O3)ccc(C(C)=O)c1O (stereo not drawn) [Ablukast],inactive: -0.606,inactive: -0.474,inactive: 0.203
O=C(O)[C@@H](CC1CCC1)c1cc(Cl)c(OCC(F)(F)F)c(-c2ccc(C(F)(F)F)cc2)c1,inactive: 0.52,inactive: 0.665,inactive: 3.52
C[C@H]1CN(C2COC2)CCN1c1ccc(Nc2cc(-c3ccnc(N4CCn5c(cc6c5CC(C)(C)C6)C4=O)c3CO)cn(C)c2=O)nc1 [Fenebrutinib],inactive: -0.893,,inactive: 0.772
"N=C(N)NC(=O)Cc1c(Cl)cccc1Cl [guanfacine, IR, Shire]",inactive: 0.327,,inactive: -0.291
"N=C(N)NC(=O)Cc1c(Cl)cccc1Cl [guanfacine, IR]",,inactive: -1.16,
CCCCCCCC(=O)OC[C@H]1O[C@@H](n2ccc(N)nc2=O)[C@@H](O)[C@@H]1O,inactive: -1.69,inactive: -1.27,inactive: -0.226
c1ccc(CN(CC2=NCCN2)c2ccccc2)cc1,inactive: -2.06,inactive: -1.84,inactive: -0.6
CCCCN(CCC1CCCCC1)Cc1ccc(C(=O)N[C@H](CCSC)C(=O)OC)c(-c2ccccc2C)c1,inactive: -0.36,inactive: 0.723,inactive: 0.0364
CN(C)S(=O)(=O)c1cc2c(c(Cl)c1Cl)OC(C(=O)O)C2 (stereo not drawn),inactive: -1.4,inactive: -1.13,inactive: -0.951
CC(C)=CCC1C(=O)N(c2ccccc2)N(c2ccccc2)C1=O [feprazone],inactive: 0.585,inactive: 0.159,inactive: 0.998
CCOC(=O)C1(c2ccccc2)CCCNC1=O (stereo not drawn),inactive: -1.1,inactive: -1.12,inactive: 1.39
CC(=O)NC1CCCN(c2nc3ncccc3o2)C1 (stereo not drawn),inactive: 0.0893,,inactive: -0.113
COC(=O)Cc1c(C)n(C(=O)c2ccc(Cl)cc2)c2ccc(OC)cc12,inactive: -1.45,inactive: -0.967,inactive: -0.0258
NS(=O)(=O)c1cc(-c2nnn[nH]2)c(NCc2cccs2)cc1Cl [azosemide],inactive: -0.793,inactive: -0.503,active: 6.39
CN1CCc2nc(C(=O)N[C@@H]3C[C@@H](C(=O)N(C)C)CC[C@@H]3NC(=O)C(=O)Nc3ccc(Cl)cn3)sc2C1 [Edoxaban tosilate],inactive: -1.1,inactive: -0.759,inactive: -0.467
CCN1c2ncc(CCOc3cc[n+]([O-])c4ccccc34)cc2C(=O)N(C)c2cccnc21,inactive: -1.24,inactive: 1.63,inactive: 0.955
Cc1ccc(C(=O)O)cc1-c1cccc(NCCNCC(O)c2cccc(Cl)c2)c1 (stereo not drawn),inactive: 1.83,inactive: 1.52,inactive: -0.614
Cc1sc(C)c2c1CCCc1cn[nH]c1-2,inactive: -2.05,inactive: -0.929,inactive: -0.515
COC(=O)CCc1c2/C=C/3\N=C(C(=C3CCC(=O)O)C)/C=C/3\N/C(=C\C4=N/C(=C\c(c1C)[nH]2)/C(=C4C)C=C)/C1=CC=C([C@H](C31C)C(=O)OC)C(=O)OC (stereo partly drawn),inactive: -2,inactive: -1.26,inactive: -0.492
